In paper PMC11660501 one finds binding data, which are given here for one substance.

Chains of the proteins cited; added tags and fusions are not shown. Residues count along the entry.
UniProt P35869, residues 11-848: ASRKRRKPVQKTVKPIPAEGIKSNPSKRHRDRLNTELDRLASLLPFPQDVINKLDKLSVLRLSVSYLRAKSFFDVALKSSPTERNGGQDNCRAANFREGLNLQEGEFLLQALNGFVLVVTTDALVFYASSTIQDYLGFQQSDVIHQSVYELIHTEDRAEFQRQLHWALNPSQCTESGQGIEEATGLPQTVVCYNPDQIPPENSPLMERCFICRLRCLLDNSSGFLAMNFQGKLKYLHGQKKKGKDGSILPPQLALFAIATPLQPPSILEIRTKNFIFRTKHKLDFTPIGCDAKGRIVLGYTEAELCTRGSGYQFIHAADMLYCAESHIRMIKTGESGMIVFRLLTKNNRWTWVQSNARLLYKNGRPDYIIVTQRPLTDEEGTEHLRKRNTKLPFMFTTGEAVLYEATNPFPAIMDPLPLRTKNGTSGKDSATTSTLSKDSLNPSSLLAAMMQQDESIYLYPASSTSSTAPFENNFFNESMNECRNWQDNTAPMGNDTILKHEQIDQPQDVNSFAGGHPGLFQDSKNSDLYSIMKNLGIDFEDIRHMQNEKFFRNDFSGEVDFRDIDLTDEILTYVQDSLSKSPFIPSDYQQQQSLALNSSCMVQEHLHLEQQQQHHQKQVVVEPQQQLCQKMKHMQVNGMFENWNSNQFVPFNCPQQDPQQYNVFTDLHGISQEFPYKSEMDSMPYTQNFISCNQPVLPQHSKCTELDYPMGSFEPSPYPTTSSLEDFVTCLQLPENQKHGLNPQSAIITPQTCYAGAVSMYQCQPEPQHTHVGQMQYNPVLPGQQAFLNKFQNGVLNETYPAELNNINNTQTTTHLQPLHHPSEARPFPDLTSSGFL
UniProt Q04206: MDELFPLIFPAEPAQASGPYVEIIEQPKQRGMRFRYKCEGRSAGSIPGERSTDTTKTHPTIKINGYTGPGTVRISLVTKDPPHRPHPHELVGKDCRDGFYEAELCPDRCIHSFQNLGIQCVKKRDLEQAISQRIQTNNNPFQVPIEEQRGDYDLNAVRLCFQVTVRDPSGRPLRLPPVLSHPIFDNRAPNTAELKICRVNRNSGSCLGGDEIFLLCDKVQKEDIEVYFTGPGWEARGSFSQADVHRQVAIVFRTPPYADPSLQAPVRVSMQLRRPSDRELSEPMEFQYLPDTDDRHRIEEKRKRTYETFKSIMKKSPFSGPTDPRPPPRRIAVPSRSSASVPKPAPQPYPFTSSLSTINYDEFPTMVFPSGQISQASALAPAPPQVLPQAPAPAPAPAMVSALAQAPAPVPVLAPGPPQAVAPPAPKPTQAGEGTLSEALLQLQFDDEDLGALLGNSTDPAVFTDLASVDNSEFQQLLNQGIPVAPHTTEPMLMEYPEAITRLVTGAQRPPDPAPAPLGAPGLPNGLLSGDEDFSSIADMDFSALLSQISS

For the assay, the target named is aryl hydrocarbon receptor (human (endogenous in HMC-1)) (UniProt P35869). The assay can be described thus: co-IP; nuclear fraction of HMC-1 cells treated with vehicle or DEP (10 μg/mL); lysed in pull-down buffer; immunoprecipitated with antibody against p65 or AhR and protein A/G magnetic beads at 4 °C overnight; western blot for AhR or p65. On the technique in general: A western blot detects proteins with antibodies after separation by electrophoresis.

No constants are given. Whether binding was seen depends on the method and setting. In cells and extracts the contact can be indirect. Some entries that bind do so weakly or less than the wild type.

Turning to p65 (NF-κB) (from UniProt Q04206 1-551), the binding entry is recorded as “binds”.
